This passage reports binding results from publication PMC5947683.

Results are given in words; binding and its absence hold for the method and conditions named.

The assay deals with Est8, GDSL-motif esterase from Bacillus sp. K91 (Bacillus sp. K91). Nature of the assay: SEC; gel filtration on Superdex 75 10/300 GL in 20 mM Tris-HCl, 0.5 M NaCl pH 7.2, after Ni-NTA; both purified.

B1: Est8, GDSL-motif esterase from Bacillus sp. K91 (enzyme)
chain: MANHIYLAGDSTVQTYGDSTNQGGWGQFLGSHLPEHIQVINRAIGGRSSKTFVEEGRLQAILDVIEPDDWLFVQMGHNDASKNKPERYTEPYTTYKQYLKQYIAGAREKGAHPLLITPVARFHYENGVFLNDFPDYCIAMKQTAEEENVQLIDLMEKSLAFFTEKGEEKVYTYFMISEGINDYTHFTKKGANEMAKLVAKGIKELGLPLTESIIKER
Regarding B1, the binding entry is listed as “no binding”.
